Data reported in the supplement of paper PMC11006884.
This list holds what a sample rich in targets with a hit left over. This is a noisy data set. This is a selection; strong and weak results do not stand in their true shares.

Sequences of proteins named here, by UniProt entry; tags and fusion partners are left off. A change or cut given only in a name is not applied to a line headed by its entry.
UniProt O43719: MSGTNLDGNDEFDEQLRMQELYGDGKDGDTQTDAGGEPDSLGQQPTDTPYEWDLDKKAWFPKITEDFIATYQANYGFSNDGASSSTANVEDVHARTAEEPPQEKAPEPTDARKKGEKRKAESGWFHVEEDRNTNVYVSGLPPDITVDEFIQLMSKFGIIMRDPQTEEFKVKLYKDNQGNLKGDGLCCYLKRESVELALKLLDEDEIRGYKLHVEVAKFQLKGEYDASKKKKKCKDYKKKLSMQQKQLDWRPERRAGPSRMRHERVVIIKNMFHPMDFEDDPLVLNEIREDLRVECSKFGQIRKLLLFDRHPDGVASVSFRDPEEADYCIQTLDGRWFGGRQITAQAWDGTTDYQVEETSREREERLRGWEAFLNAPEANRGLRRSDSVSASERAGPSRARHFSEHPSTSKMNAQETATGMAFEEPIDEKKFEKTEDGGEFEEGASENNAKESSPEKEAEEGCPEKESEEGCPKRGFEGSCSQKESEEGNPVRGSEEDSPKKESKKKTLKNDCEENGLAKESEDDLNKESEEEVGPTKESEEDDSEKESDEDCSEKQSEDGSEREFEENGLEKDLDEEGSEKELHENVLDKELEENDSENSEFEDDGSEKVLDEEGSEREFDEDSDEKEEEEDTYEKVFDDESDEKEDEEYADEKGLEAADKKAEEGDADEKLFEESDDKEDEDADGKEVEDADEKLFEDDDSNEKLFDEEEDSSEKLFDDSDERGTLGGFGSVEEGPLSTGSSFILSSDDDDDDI
UniProt O75569: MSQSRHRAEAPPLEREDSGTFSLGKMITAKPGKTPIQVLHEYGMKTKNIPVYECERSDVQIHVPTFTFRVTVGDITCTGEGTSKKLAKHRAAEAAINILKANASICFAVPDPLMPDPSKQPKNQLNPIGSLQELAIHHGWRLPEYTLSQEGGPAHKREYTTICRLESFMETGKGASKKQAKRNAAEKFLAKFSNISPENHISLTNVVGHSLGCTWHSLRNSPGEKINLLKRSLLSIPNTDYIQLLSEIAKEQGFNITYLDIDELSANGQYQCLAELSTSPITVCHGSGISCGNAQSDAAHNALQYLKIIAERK
UniProt O60934: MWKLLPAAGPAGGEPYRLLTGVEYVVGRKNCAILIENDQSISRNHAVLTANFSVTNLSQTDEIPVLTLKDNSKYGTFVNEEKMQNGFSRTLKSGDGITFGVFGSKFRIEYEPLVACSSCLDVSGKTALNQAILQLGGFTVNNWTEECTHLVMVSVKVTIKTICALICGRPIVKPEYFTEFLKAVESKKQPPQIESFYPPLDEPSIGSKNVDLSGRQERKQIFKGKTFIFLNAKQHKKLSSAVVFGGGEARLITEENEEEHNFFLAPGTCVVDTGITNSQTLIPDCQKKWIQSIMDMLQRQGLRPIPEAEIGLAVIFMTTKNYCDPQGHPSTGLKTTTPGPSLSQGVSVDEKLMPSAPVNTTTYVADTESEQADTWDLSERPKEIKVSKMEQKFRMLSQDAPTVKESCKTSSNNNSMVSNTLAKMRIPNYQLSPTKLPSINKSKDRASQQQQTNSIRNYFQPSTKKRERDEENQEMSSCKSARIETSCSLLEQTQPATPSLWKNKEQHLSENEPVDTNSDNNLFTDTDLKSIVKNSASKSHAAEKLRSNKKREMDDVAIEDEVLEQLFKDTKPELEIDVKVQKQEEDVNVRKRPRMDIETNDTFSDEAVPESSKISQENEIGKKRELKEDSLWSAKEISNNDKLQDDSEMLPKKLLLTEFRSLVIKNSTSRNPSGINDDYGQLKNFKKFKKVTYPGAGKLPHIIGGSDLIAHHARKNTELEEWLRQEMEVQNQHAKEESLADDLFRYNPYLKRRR
UniProt O60256: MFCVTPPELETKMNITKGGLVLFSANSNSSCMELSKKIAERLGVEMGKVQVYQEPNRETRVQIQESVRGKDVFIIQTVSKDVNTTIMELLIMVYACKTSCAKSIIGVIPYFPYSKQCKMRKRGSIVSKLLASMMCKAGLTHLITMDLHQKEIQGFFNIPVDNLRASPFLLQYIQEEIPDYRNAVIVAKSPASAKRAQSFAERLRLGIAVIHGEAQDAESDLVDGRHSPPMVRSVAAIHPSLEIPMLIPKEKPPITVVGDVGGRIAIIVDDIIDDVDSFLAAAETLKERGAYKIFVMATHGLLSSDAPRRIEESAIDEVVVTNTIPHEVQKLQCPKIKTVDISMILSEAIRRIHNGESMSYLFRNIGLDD
UniProt O60264, whole entry, looked up: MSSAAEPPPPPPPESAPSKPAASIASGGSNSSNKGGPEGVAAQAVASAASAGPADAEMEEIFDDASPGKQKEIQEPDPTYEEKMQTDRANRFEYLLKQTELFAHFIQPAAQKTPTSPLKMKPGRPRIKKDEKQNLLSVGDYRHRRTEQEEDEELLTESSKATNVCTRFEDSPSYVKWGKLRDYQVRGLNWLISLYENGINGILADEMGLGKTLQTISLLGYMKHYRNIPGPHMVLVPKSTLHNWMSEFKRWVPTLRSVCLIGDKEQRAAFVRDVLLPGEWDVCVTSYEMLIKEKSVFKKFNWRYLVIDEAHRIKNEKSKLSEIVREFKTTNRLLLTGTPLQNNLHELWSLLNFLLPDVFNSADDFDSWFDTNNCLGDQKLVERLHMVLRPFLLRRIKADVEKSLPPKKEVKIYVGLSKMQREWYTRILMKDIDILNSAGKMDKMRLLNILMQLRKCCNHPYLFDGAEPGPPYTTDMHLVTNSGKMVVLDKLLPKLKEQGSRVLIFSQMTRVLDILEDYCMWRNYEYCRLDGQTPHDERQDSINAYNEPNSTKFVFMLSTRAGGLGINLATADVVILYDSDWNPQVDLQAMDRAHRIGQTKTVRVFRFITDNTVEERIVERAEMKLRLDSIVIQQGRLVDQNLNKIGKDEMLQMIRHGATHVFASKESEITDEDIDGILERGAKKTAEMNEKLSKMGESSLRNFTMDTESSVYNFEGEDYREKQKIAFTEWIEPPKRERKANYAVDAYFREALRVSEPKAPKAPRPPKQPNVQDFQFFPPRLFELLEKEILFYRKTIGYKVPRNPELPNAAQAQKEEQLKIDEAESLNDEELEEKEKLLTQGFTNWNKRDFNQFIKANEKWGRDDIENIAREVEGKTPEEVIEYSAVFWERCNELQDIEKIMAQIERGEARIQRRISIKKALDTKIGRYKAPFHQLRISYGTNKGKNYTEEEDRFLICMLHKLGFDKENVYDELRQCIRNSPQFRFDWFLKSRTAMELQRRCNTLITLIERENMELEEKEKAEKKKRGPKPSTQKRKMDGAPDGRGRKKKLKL
UniProt O60841: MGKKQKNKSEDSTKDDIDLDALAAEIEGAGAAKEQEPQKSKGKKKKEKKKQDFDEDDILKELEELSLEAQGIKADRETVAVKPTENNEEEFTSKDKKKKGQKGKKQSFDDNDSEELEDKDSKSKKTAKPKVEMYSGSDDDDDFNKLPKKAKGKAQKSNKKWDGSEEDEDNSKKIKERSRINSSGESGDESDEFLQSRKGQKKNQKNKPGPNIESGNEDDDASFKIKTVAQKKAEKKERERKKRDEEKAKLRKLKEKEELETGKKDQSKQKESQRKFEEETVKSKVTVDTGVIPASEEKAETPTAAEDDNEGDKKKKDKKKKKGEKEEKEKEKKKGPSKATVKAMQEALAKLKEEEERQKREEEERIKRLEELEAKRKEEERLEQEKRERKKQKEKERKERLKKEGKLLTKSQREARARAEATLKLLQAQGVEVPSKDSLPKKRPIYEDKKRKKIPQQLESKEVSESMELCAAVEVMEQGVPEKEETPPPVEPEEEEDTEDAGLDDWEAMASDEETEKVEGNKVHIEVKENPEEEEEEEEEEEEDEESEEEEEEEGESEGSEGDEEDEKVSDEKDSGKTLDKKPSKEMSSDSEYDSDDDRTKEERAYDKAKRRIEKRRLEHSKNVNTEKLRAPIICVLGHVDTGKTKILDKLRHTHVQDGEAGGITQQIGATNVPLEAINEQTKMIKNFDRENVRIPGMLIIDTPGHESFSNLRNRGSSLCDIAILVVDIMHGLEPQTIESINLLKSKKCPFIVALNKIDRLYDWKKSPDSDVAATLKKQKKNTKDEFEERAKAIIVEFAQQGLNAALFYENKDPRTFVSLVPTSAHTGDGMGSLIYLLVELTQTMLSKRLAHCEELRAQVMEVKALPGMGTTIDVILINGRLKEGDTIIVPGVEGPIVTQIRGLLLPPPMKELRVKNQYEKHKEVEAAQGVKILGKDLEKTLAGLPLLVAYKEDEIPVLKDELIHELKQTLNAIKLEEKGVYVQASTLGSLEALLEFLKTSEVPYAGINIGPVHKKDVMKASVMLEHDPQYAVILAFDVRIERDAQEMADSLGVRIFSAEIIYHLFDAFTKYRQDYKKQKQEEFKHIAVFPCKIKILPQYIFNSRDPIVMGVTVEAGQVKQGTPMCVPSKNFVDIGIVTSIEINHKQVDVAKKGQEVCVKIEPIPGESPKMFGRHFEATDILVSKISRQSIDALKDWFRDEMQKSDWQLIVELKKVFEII
UniProt O75643, whole entry, looked up: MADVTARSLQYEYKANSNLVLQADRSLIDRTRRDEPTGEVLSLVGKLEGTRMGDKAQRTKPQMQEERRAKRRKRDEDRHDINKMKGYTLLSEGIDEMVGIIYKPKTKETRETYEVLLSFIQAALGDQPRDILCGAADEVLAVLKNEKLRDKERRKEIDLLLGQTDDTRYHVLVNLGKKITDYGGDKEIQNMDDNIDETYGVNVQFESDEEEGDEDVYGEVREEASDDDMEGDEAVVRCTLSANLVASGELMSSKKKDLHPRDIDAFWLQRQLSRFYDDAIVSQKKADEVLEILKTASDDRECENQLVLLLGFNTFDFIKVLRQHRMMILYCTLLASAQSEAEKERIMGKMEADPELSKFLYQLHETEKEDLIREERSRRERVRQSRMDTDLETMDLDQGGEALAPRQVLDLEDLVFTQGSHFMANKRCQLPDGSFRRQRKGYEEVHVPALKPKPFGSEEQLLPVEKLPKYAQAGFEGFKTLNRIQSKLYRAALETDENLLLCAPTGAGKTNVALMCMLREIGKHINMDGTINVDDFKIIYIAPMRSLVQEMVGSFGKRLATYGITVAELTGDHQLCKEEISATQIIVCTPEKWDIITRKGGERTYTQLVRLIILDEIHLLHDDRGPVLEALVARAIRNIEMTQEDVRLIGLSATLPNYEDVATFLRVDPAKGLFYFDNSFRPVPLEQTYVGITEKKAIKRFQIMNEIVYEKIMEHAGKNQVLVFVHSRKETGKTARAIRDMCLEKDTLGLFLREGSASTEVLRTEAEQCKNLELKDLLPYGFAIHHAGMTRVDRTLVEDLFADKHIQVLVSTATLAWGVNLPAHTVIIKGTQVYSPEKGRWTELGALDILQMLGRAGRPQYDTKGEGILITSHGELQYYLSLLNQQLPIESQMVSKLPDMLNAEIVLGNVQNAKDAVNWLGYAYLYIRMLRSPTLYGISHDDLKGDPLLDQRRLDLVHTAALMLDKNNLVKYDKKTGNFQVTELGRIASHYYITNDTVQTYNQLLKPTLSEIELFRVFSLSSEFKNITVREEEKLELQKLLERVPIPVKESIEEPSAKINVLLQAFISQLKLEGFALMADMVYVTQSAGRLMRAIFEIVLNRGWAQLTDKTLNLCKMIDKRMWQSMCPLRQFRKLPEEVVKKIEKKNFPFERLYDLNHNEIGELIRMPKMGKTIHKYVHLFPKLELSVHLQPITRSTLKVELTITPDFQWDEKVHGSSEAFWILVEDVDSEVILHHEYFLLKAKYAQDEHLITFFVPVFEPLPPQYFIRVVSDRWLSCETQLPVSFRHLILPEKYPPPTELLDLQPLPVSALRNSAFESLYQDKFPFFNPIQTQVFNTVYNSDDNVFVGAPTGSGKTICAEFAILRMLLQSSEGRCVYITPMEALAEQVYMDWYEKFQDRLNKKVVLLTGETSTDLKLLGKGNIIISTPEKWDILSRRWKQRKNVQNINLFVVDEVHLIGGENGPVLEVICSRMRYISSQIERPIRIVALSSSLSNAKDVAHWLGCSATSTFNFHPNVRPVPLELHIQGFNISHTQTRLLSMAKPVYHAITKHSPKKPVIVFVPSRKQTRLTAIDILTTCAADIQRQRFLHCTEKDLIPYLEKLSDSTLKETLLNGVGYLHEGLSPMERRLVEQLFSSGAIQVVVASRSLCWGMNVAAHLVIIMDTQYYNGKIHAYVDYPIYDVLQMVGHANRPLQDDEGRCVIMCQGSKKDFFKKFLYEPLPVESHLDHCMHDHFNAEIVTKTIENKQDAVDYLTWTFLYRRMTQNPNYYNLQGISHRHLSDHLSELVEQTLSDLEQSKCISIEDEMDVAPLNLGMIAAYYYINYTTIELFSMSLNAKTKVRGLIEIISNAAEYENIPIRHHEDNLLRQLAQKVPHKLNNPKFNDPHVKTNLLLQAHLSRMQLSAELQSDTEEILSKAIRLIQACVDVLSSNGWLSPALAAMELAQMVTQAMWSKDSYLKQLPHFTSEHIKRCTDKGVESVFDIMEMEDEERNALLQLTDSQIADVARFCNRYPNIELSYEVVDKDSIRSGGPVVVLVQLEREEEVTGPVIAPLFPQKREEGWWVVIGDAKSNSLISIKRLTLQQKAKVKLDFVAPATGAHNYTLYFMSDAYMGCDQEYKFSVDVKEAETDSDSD

These targets were tested with COC(=O)/C=C/c1ccccc1 [methyl cinnamate] (assay: log2 ratio of iodoacetamide-alkyne labeling of the cysteine site, DMSO over compound (competition); higher = stronger covalent engagement of the cysteine by the compound, active = 1 or more). Conditions: 500 µM; treatment time 1 h; system: HEK293T cell lysate.
Summary of the method: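 Three replicates, each with duplicate channels, were prepared from HEK293T lysate (2 mg/mL) treated with vehicle or electrophile at 500 µM for 1 h at ambient temperature. Iodoacetamide alkyne was then applied for 1 h, and samples were clicked to sCIP-TMT reagents, pooled, trypsin-digested overnight at 37 °C, enriched on streptavidin, acid-eluted and analysed on Orbitrap Eclipse LC-MS/MS with FAIMS, with FragPipe quantification. The log2 competition ratio per cysteine is the mean control-channel divided by the mean compound-channel reporter intensity. Cysteines quantified in only one replicate were left out.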

log2 ratio of iodoacetamide-alkyne labeling, inactive:
PTCD1 C183 (UniProt O75127) 0.104, UniProt O60502_C896 0.245, HTATSF1 C471 (UniProt O43719) 0.449, UniProt O75521_C282 0.0485, ZFC3H1 C220 (UniProt O60293) -0.292, EPB41L2 C232 (UniProt O43491) 0.26, FLNB C2115 (UniProt O75369) 0.201, FOXO3 C31 (UniProt O43524) 0.0154, PRKRA C106 (UniProt O75569) 0.216, HTATSF1 C480 (UniProt O43719) 0.254, MYO1B C310 (UniProt O43795) 0.0221, NBN C478 (UniProt O60934) 0.378, UTP20 C2058 (UniProt O75691) 0.275, PRPSAP2 C31 (UniProt O60256) -0.033, SMARCA5 C165 (UniProt O60264) 0.333, CSDE1 C42 (UniProt O75534) 0.0415, PSIP1 C204 (UniProt O75475) 0.239, EIF5B C853 (UniProt O60841) 0.252, FLNB C2556 (UniProt O75369) -0.0432, SNRNP200 C2011 (UniProt O75643) 0.0166, ACTN4 C60 (UniProt O43707) 0.07
